These are yes or no findings as the source states them, for the method shown. Binding seen in cells or lysates may run through a third protein. Some binding calls cover weakened binding; strength is not graded here.
Biological target: p11 (S100A10) (mouse (endogenous in DRN)) (UniProt P08207)
Assay: co-IP; protein extracted from mouse DRN incubated with primary antibodies or control IgG overnight at 4 °C, protein A/G magnetic beads; immunoblotting

Chains of the proteins cited; added tags and fusions are not shown. Residues count along the entry.
UniProt P08207: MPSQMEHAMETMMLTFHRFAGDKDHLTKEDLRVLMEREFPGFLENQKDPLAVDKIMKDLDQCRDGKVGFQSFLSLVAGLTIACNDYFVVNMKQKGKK
UniProt Q01097, residues 27-1482: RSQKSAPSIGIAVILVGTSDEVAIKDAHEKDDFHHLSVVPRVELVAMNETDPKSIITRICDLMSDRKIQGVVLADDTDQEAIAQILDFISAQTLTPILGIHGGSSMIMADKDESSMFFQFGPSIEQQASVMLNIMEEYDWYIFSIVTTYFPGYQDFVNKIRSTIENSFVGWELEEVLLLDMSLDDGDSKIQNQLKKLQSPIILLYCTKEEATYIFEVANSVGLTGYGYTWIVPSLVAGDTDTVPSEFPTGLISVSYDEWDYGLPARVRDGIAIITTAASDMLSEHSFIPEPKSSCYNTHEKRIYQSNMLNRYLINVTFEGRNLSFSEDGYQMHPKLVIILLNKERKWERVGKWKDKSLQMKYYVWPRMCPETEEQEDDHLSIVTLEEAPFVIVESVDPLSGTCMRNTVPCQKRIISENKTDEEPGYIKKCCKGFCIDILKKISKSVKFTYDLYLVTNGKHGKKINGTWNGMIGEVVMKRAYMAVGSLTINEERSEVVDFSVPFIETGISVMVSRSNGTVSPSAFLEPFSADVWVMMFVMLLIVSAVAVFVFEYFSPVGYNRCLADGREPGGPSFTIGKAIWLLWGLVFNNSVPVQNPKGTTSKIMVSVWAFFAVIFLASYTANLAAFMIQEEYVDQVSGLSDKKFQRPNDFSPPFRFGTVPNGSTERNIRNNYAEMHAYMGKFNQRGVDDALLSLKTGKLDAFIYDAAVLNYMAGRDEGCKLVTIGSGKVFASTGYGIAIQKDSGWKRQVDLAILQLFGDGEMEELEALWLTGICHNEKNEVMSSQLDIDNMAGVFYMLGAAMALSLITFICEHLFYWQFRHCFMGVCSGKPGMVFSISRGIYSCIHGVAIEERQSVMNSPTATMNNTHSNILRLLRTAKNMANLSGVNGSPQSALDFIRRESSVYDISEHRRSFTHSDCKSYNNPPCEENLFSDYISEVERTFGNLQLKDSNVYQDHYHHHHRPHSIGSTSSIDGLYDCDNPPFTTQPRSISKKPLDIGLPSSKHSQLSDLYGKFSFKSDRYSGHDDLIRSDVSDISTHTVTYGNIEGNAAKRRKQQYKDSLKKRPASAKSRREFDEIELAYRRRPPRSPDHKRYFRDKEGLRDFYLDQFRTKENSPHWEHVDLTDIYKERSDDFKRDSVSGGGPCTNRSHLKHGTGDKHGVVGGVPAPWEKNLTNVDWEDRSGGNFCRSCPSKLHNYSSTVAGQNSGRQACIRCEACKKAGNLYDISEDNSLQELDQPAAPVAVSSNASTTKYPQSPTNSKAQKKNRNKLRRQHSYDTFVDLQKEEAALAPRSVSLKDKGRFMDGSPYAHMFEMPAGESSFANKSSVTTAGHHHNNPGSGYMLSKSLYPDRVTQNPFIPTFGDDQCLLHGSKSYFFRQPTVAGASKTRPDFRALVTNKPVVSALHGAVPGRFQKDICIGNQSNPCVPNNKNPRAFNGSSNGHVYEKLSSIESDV

binding | Substance
binds | GluN2B (from UniProt Q01097 27-1482) (receptor)
binds | GluN2A (from UniProt P35436 23-1464) (receptor)

Source: paper PMC10665321
